Data on 37 targets can be found in the supplement of paper PMC11732987, “Enantioselective OTUD7B fragment discovery through chemoproteomics screening and high-throughput optimisation” (Communications Chemistry, 2025).

Sequences of proteins named here, by UniProt entry; tags and fusion partners are left off. A change or cut given only in a name is not applied to a line headed by its entry. Residues count along the entry.
UniProt P49711, 573-592: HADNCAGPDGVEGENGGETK
UniProt Q9NUI1: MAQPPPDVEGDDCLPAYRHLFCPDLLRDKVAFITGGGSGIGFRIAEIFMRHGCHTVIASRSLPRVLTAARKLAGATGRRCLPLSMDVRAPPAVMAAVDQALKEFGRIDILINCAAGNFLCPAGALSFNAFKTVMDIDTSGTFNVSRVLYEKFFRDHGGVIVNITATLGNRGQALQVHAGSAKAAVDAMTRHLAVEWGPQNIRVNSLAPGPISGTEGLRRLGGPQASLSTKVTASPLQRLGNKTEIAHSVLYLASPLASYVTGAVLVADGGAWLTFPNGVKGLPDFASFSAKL
UniProt Q14203, whole entry, looked up: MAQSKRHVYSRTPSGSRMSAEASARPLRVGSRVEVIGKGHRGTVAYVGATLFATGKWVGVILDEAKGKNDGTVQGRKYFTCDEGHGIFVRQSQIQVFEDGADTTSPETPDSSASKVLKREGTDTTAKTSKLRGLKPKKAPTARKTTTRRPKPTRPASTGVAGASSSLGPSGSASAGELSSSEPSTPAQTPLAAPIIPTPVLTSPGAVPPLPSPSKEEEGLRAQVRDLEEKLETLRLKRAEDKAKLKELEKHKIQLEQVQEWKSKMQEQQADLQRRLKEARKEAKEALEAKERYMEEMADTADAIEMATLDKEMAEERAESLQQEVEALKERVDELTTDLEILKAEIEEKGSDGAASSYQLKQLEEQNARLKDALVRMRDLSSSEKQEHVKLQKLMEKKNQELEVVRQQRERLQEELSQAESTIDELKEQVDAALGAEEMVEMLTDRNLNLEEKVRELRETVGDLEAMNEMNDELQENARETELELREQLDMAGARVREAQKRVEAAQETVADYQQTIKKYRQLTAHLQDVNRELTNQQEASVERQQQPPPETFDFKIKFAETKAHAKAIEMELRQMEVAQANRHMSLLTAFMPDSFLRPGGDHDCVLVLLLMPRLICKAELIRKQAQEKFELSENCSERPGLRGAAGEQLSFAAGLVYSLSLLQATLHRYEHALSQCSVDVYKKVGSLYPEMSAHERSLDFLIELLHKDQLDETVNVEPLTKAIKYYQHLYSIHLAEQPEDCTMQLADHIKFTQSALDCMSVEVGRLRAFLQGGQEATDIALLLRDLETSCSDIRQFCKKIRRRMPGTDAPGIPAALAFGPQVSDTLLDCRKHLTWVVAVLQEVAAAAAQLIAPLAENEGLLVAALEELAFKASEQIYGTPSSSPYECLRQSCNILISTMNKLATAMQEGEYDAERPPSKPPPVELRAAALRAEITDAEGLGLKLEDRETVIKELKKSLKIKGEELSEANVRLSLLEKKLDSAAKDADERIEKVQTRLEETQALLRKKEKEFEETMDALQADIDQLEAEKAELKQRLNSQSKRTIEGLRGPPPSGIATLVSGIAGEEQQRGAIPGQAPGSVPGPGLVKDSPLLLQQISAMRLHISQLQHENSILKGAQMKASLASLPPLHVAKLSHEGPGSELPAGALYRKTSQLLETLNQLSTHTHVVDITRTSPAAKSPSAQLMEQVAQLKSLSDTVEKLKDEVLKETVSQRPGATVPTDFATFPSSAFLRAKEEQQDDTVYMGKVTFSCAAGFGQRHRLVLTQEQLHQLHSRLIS
UniProt Q12996: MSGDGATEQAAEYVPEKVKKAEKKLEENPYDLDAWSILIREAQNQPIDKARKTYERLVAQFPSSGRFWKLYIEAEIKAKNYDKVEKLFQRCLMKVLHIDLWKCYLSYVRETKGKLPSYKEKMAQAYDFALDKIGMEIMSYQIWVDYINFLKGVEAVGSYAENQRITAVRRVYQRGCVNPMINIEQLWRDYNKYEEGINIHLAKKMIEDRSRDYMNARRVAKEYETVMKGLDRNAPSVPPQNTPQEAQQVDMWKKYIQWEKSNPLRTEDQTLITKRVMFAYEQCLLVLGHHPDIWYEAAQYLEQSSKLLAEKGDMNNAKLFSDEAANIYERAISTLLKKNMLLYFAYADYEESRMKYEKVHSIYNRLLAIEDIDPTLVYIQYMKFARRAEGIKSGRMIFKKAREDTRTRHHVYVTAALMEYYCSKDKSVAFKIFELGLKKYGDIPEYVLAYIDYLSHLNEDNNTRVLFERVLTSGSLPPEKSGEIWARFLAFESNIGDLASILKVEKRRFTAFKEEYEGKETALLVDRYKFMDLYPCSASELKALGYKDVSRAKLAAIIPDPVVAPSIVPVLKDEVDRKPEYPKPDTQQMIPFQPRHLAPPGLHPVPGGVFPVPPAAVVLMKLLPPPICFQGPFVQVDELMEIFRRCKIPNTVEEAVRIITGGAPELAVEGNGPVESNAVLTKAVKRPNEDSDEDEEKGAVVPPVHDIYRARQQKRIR
UniProt Q9NY93: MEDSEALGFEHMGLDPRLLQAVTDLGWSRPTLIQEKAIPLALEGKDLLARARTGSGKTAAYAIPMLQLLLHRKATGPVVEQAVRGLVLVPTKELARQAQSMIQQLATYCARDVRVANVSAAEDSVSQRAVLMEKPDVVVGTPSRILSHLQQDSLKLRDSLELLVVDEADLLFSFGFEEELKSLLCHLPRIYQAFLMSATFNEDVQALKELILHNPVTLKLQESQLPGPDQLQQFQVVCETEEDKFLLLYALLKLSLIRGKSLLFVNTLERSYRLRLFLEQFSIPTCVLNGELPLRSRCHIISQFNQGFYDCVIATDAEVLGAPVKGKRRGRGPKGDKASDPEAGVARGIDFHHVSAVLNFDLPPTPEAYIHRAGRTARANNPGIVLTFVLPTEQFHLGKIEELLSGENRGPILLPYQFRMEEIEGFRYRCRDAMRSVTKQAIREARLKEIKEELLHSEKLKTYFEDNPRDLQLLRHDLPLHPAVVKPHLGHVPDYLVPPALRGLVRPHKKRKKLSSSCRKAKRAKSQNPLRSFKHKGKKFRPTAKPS
UniProt O75935, 129-148: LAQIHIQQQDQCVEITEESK
UniProt Q13617, whole entry, looked up: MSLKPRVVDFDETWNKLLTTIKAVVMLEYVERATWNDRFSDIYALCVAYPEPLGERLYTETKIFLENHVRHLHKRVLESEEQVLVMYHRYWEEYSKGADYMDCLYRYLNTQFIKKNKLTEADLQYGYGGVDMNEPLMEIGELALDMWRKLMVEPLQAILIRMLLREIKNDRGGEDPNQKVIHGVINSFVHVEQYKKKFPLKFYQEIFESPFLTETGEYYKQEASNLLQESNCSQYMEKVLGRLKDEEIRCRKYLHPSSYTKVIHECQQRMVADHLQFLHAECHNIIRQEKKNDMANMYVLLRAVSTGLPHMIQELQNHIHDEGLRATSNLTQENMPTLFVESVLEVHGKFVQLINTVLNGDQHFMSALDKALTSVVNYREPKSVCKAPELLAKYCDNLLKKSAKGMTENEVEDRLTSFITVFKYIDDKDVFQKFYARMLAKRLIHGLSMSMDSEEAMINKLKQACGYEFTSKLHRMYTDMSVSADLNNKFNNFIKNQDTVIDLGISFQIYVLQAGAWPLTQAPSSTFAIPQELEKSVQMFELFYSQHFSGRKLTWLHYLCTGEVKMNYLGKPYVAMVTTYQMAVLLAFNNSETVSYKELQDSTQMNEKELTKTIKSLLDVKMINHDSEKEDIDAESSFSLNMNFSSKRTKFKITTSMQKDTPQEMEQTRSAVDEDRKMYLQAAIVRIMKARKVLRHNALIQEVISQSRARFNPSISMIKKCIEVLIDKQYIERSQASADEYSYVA
UniProt Q16527: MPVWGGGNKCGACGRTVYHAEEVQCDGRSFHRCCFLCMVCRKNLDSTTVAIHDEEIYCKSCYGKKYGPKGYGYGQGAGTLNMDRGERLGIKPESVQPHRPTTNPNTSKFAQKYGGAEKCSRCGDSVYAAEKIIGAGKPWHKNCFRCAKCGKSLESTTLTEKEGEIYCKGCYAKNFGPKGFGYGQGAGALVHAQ
UniProt O75718: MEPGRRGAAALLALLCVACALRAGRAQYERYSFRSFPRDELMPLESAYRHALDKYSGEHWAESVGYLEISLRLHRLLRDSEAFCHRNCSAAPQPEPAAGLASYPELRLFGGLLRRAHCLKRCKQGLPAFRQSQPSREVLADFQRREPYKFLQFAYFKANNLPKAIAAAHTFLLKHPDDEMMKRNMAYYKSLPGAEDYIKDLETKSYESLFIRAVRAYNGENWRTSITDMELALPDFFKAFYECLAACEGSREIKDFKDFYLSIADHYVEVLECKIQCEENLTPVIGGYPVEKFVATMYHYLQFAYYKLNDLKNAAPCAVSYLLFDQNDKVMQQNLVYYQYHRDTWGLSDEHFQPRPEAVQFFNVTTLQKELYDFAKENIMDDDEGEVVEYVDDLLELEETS
UniProt P35659: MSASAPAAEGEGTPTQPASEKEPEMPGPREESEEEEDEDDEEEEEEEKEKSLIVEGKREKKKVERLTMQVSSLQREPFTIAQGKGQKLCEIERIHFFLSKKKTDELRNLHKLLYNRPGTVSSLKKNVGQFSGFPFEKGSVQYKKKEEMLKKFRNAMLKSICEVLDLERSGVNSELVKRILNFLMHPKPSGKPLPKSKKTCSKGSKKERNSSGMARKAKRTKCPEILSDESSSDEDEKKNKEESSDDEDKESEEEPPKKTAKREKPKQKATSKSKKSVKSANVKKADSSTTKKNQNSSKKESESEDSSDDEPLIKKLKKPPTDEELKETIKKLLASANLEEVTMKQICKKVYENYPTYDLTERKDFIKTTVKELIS
UniProt P01034: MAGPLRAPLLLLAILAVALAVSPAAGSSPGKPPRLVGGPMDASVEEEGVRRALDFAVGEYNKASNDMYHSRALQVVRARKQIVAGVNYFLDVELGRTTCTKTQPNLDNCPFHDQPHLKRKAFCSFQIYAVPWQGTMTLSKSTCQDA
UniProt O00148, whole entry, looked up: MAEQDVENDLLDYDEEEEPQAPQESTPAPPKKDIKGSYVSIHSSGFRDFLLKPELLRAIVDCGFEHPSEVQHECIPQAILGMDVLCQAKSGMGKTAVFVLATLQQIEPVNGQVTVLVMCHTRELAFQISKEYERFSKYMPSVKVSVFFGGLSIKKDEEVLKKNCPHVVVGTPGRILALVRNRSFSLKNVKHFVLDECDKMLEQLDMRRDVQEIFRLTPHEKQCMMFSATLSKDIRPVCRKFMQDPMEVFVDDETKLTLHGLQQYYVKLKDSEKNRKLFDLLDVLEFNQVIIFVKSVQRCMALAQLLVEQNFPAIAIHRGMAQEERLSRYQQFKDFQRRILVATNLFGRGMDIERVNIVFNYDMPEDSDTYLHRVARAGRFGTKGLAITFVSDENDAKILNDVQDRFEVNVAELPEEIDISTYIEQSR
UniProt Q9UHI6: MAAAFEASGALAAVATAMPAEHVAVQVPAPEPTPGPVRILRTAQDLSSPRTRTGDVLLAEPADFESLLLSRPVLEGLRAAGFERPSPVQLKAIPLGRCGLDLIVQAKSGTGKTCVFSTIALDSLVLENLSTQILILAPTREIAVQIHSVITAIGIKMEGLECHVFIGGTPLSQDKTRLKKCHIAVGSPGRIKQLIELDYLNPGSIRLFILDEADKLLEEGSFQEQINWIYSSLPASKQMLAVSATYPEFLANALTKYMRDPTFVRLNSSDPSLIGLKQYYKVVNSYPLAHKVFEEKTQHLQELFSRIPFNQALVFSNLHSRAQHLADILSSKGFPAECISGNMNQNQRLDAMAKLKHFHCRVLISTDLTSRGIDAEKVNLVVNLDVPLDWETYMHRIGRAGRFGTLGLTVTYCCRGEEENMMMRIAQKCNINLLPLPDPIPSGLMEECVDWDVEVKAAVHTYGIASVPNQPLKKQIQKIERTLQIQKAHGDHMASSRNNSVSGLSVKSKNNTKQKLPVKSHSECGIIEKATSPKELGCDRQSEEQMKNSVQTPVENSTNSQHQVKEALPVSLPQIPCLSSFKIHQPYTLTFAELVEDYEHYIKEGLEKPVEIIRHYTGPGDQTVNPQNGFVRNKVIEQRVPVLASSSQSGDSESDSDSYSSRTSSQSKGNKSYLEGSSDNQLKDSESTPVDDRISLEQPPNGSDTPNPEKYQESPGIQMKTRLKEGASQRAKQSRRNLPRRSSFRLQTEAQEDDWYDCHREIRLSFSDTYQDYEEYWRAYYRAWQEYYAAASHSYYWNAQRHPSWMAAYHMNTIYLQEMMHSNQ
UniProt Q66K64: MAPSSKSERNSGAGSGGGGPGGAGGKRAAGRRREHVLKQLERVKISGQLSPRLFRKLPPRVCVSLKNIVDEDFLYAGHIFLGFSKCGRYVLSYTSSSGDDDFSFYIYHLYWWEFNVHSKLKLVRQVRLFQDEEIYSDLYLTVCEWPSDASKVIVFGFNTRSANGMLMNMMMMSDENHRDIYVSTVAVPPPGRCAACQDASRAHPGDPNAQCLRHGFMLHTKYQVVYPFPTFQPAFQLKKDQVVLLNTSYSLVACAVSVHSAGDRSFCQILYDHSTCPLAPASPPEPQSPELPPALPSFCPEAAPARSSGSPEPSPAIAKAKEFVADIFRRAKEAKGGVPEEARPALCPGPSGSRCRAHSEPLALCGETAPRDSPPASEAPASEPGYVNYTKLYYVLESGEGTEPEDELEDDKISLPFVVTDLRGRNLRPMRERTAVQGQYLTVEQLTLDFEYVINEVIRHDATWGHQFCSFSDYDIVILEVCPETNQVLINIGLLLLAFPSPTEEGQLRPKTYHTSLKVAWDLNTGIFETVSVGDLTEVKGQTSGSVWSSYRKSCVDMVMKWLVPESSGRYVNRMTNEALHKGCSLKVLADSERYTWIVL

This is one part of the list. The data scatter; read single values as rough.

Compound in one assay: ClCC(=O)N[C@@H]1CCCc2ccccc12
Nature of the assay: log2 mean competition ratio of IA-DTB cysteine labelling (DMSO/compound) (log2 ratio); higher = stronger cysteine engagement by compound. The following applies: 50 µM; treatment time: 4 h; cell line lysate: HEK293T. The method, then: (§1)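 IA-DTB competitive cysteine chemoproteomics in HEK293T RIPA lysate. Lysates were treated with compound 29 or 30 at 50 or 200 µM for 4 h, then IA-DTB (500 µM, 1 h), trypsin-digested, NeutrAvidin-enriched and analysed by diaPASEF. Competition ratio = intensity DMSO / intensity compound (n=4 treated, n=64 DMSO); binding: mean log2 CR ≥ 1 and p ≤ 0.05 plus QC filters. Target is the cysteine site.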
Regarding DCXR C150 (UniProt Q7Z4W1), the “log2 mean competition ratio” value stood at 0.217.
As to CTCF C577 (UniProt P49711), the “log2 mean competition ratio” value is 0.144.
In the case of DARS1 C76, the “log2 mean competition ratio” value amounted to 0.65.
DALRD3 C314 (UniProt Q5D0E6): the “log2 mean competition ratio” value came out at 0.174.
For the target DECR2 C22 (UniProt Q9NUI1), the “log2 mean competition ratio” value was -0.232.
With DCTN1 C791 (UniProt Q14203), the “log2 mean competition ratio” value is -0.156.
Same read-out and setting: the result for CSK C290 (UniProt P41240) reads 0.0631; that for DDX3X C468 (UniProt O00571), 0.0439; that for CUL5 C188 (UniProt Q93034), 0.111.
For the target CSPG4 C533 (UniProt Q6UVK1), the “log2 mean competition ratio” value was found to be 0.115.
Same read-out and setting: in the case of CYLD C129 (UniProt Q9NQC7) it was -0.288.
Regarding CSTF3 C646 (UniProt Q12996), the “log2 mean competition ratio” value turned out to be 0.364.
As for D2HGDH C198 (UniProt Q8N465), the “log2 mean competition ratio” value came to 0.426.
With DDX5 C191 (UniProt P17844), the “log2 mean competition ratio” value was -0.405.
Consider CSTF3 C536 (UniProt Q12996), for which the “log2 mean competition ratio” value came out at 0.306.
On the same count and under the same terms, the result for CTSB C93 (UniProt P07858) reads 0.016; that for DCAF13 C120 (UniProt Q9NV06), 0.374.
On to DDX56 C185 (UniProt Q9NY93), for which the “log2 mean competition ratio” value was found to be 0.521.
On to DCTN3 C140 (UniProt O75935), for which the “log2 mean competition ratio” value is -0.176.
As for CUX1 C1078, the “log2 mean competition ratio” value is -0.171.
On to CUL2 C465 (UniProt Q13617), for which the “log2 mean competition ratio” value is -0.0354.
For the target CSRP2 C58 (UniProt Q16527), the “log2 mean competition ratio” value is -0.0906.
On the same count and under the same terms, the result for CUL9 C1340 (UniProt Q8IWT3) reads 0.217; that for CRTAP C84 (UniProt O75718), -0.0152; that for DCP2 C158 (UniProt Q8IU60), -0.18.
Take DEK C222 (UniProt P35659): the “log2 mean competition ratio” value stood at 0.0915.
Same read-out and setting: the result for CST3 C109 (UniProt P01034) reads 0.702; that for DDX39A C197 (UniProt O00148), -0.00628.
Regarding CRYBG3 C439 (UniProt Q68DQ2), the “log2 mean competition ratio” value is -0.375.
Regarding DDX46 C501, the “log2 mean competition ratio” value was -0.209.
Same read-out and setting: the result for DDX23 C791 (UniProt Q9BUQ8) reads -0.256; that for DDX39B C165, 0.0111.
In the case of CUL2 C395 (UniProt Q13617), the “log2 mean competition ratio” value stood at 0.289.
For DARS2 C449 (UniProt Q6PI48), the “log2 mean competition ratio” value came to 0.536.
For the target CWF19L2 C299 (UniProt Q2TBE0), the “log2 mean competition ratio” value is 0.138.
The same measure, in the same setting: in the case of DDX20 C181 (UniProt Q9UHI6) it was 0.0506; in that of DCAF15 C365 (UniProt Q66K64), 0.177.

The assay is the same for the next values; noted with them: 200 µM; treatment time: 4 h; cell line lysate: HEK293T.
For DCXR C150 (UniProt Q7Z4W1), the “log2 mean competition ratio” value was -0.0376.
CTCF C577 (UniProt P49711): the “log2 mean competition ratio” value was -0.398.
Take DARS1 C76: the “log2 mean competition ratio” value is -0.0247.
The same measure, in the same setting: the result for DALRD3 C314 (UniProt Q5D0E6) reads -0.122.
In the case of DECR2 C22 (UniProt Q9NUI1), the “log2 mean competition ratio” value was -0.131.
As to DCTN1 C791 (UniProt Q14203), the “log2 mean competition ratio” value was -0.0339.
On the same count and under the same terms, the result for CSK C290 (UniProt P41240) reads 0.304; that for DDX3X C468 (UniProt O00571), 0.228.
Same read-out and setting: the result for CUL5 C188 (UniProt Q93034) reads -0.44; that for CSPG4 C533 (UniProt Q6UVK1), -0.0107.
As for CYLD C129 (UniProt Q9NQC7), the “log2 mean competition ratio” value was -0.0226.
Take CSTF3 C646 (UniProt Q12996): the “log2 mean competition ratio” value was 0.251.
With D2HGDH C198 (UniProt Q8N465), the “log2 mean competition ratio” value was -0.00119.
Regarding DDX5 C191 (UniProt P17844), the “log2 mean competition ratio” value turned out to be 0.12.
CSTF3 C536 (UniProt Q12996): the “log2 mean competition ratio” value is -0.192.
Consider CTSB C93 (UniProt P07858), for which the “log2 mean competition ratio” value is 0.334.
On to DCAF13 C120 (UniProt Q9NV06), for which the “log2 mean competition ratio” value is -0.581.
For DDX56 C185 (UniProt Q9NY93), the “log2 mean competition ratio” value was -0.302.
DCTN3 C140 (UniProt O75935): the “log2 mean competition ratio” value is -0.0583.
As for CUX1 C1078, the “log2 mean competition ratio” value was -0.0954.
On the same count and under the same terms, the result for CUL2 C465 (UniProt Q13617) reads 0.167; that for CSRP2 C58 (UniProt Q16527), -0.272; that for CUL9 C1340 (UniProt Q8IWT3), 0.783.
In the case of CRTAP C84 (UniProt O75718), the “log2 mean competition ratio” value was found to be 0.237.
In the case of DCP2 C158 (UniProt Q8IU60), the “log2 mean competition ratio” value is -0.0849.
The same measure, in the same setting: the result for DEK C222 (UniProt P35659) reads 0.0221; that for CST3 C109 (UniProt P01034), 0.377.
The same measure, in the same setting: in the case of DDX39A C197 (UniProt O00148) it was 0.257; in that of CRYBG3 C439 (UniProt Q68DQ2), -0.437; in that of DDX46 C501, -0.202.
As to DDX23 C791 (UniProt Q9BUQ8), the “log2 mean competition ratio” value was 0.0964.
Regarding DDX39B C165, the “log2 mean competition ratio” value is -0.352.
As for CUL2 C395 (UniProt Q13617), the “log2 mean competition ratio” value was determined as 0.488.
Regarding DARS2 C449 (UniProt Q6PI48), the “log2 mean competition ratio” value is -0.274.
Consider CWF19L2 C299 (UniProt Q2TBE0), for which the “log2 mean competition ratio” value came out at 0.0808.
In the case of DDX20 C181 (UniProt Q9UHI6), the “log2 mean competition ratio” value is -0.104.
In the case of DCAF15 C365 (UniProt Q66K64), the “log2 mean competition ratio” value is 0.162.

Compound in the next assay: ClCC(=O)N[C@H]1CCCc2ccccc12
The description is as above. Conditions: 50 µM; treatment time: 4 h; cell line lysate: HEK293T. The method, then:
as §1
On to CTCF C577 (UniProt P49711), for which the “log2 mean competition ratio” value is -0.402.
As for DARS1 C76, the “log2 mean competition ratio” value stood at 0.386.
Consider DECR2 C22 (UniProt Q9NUI1), for which the “log2 mean competition ratio” value is -0.437.
Take DCTN1 C791 (UniProt Q14203): the “log2 mean competition ratio” value is -0.09.
In the case of CSTF3 C646 (UniProt Q12996), the “log2 mean competition ratio” value was found to be 0.108.
For the target DCTN3 C140 (UniProt O75935), the “log2 mean competition ratio” value was -0.0509.
With CUL2 C465 (UniProt Q13617), the “log2 mean competition ratio” value is 0.0724.
For CSRP2 C58 (UniProt Q16527), the “log2 mean competition ratio” value is 0.14.
Still for that read-out and setting: the result for CRTAP C84 (UniProt O75718) reads 0.0266; that for DEK C222 (UniProt P35659), -0.312; that for CST3 C109 (UniProt P01034), 0.0485.
On to DDX20 C181 (UniProt Q9UHI6), for which the “log2 mean competition ratio” value came out at 0.155.
As for DCAF15 C365 (UniProt Q66K64), the “log2 mean competition ratio” value came out at 0.0636.
